# Measurements published in PubChem BioAssay AID2685 (National Center for Advancing Translational Sciences (NCATS), 2010).
# This is one part of the list. The main result of the screen is listed elsewhere. These columns were measured beside it and carry no call. The list favours compounds with an active or inconclusive main result. The note in brackets gives the kind of curve behind each potency; many fits are weak.
# Test: qHTS Assay for Lipid Storage Modulators in Drosophila S3 Cells;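 on cell number change: cells counted by Cell Tracker Red CMTPX staining in the red channel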
# Details: BODIPY lipid droplet fluorescence, 18-24 h; for cell number change: measured here: cell count max response, cells fed with added oleic acid
# Outline: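 Laser-scanning cytometry quantifies lipid droplet accumulation (500–530 nm total intensity; droplet/cell object ratio) in oleic acid-fed (400 uM added) Drosophila S3 cells treated with a concentration series. 20 uM Triacsin C defined 100% inhibition.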
# [1] = measured here: lipid fluorescence (Fed channel) AC50, cells fed with added oleic acid
# [2] = measured here: cell number channel AC50, cells fed with added oleic acid
Compound,cell number change,AC50 [1],AC50 [2]
Cn1c(=O)c(C(=O)NCCCc2ccccc2)c(O)c2ccccc21,3.44%,"29.1 µM [rising, single point]",
CN(CC(=O)Nc1ccccc1Br)C(=O)c1cc(Cl)nc2ccccc12,7.15%,"2.06 µM [rising, full curve, poor fit]",
COc1ccccc1C1C(C(=O)c2cc3ccccc3o2)=C(O)C(=O)N1c1cc(C)on1 (stereo not drawn),,"20.6 µM [rising, single point]",
COc1ccccc1NC(=O)Cc1csc(NC(=S)Nc2ccccc2)n1,-18.4%,"0.116 µM [falling, full curve, poor fit]",
O=C(CN(c1ccc(F)cc1)S(=O)(=O)c1ccc2c(c1)OCCO2)NCc1ccncc1,-25.4%,"18.4 µM [falling, partial curve, poor fit]",
COc1ccccc1/C=C1\SC(=S)N(CCC(=O)Nc2ccc(C(=O)O)c(O)c2)C1=O,-34.8%,,"0.206 µM [falling, full curve, poor fit]"
Cc1cccc(OCCNC(=O)c2ccc(Cl)c(S(=O)(=O)NCc3cccnc3)c2)c1,-16.2%,,
O=C(COC(=O)C1CCN(c2ccc(C(F)(F)F)cn2)CC1)NC1CCCCC1,-19.5%,,
O=C(Nc1nc2c(F)cccc2s1)c1ccc([N+](=O)[O-])o1,-16.7%,"1.46 µM [falling, full curve]",
COc1cc(C(=O)OCC(=O)NC(=O)NCc2ccccc2)ccc1OC(F)F,-0.0808%,"3.66 µM [rising, partial curve]",
O=C(CS(=O)CC(=O)N(CC(=O)NC1CCCC1)c1ccccc1F)Nc1ccc(F)cc1 (stereo not drawn),9.57%,"0.326 µM [rising, full curve]",
CN(Cc1cnn(C)c1)C(=O)CC1C(=O)NCCN1Cc1cccc(Oc2ccccc2)c1 (stereo not drawn),22.7%,"20.6 µM [rising, single point]",
COc1ccc(NC(=O)CC2SC(=N)N(c3ccccc3)C2=O)c(OC)c1 (stereo not drawn),-7.95%,"2.06 µM [falling, partial curve]","2.31 µM [falling, partial curve]"
Cn1cc(S(=O)(=O)NC2CCCCC2)c(=O)n(C)c1=O,-14.2%,"20.6 µM [falling, partial curve]",
CNC(=S)N(CCc1ccc(OC)c(OC)c1)C1CC(=O)N(c2ccccc2)C1=O (stereo not drawn),18.1%,,
COCCCN1C(=O)c2ccc(C(=O)OCC(=O)NCc3ccccc3OC)cc2C1=O,-29.8%,"11.6 µM [falling, partial curve, poor fit]",

Compound,cell number change,AC50 [1],AC50 [2]
CCCC(CCC)C(=O)NCCN1CCOCC1,9.54%,"6.51 µM [falling, single point]","0.82 µM [falling, full curve]"
COc1ccc(NC2=NCC(=O)N2c2ccccc2)c(OC)c1,3.77%,,
Cc1ccc(C(=O)N2CCN(CCNC(=O)C(=O)Nc3ccc(Cl)cc3)CC2)cc1,-30.1%,,"29.1 µM [falling, single point]"
CCOc1ccc(NC(=O)C2CCCN(C(=O)Nc3ccccc3)C2)cc1 (stereo not drawn),-2.87%,,
O=C(Nc1ccc([N+](=O)[O-])cc1)N1CCc2ccccc2C1,16.1%,"6.51 µM [rising, single point]",
COc1ccc(N2C(=O)CSC23C(=O)N2c4c(cccc43)C(C)=CC2(C)C)cc1 (stereo not drawn),-108%,,
CCn1nccc1C(=O)Nc1ccc(C)c(C)c1,-11.4%,"5.8 µM [rising, full curve]",
CCN(CC)c1ccc(/C=N/n2c(-c3ccccc3Br)n[nH]c2=S)cc1,20.6%,"8.2 µM [rising, partial curve]",
COc1cccc(-c2csc(N3CCN(S(=O)(=O)c4ccc(F)cc4)CC3)n2)c1,-16.7%,"0.00461 µM [falling, full curve, poor fit]",
O=C(COC(=O)c1cn(-c2ccccc2)nc1-c1cccnc1)NC1CC1,,,"1.84 µM [rising, partial curve, poor fit]"
COc1ccc(NC(=O)CSc2nnc3ccc(-c4cccnc4)nn23)c(OC)c1,43.3%,,"0.731 µM [rising, full curve]"
CCn1c(SCC(=O)N/N=C/c2ccc(C)o2)nnc1-c1ccc(C(C)(C)C)cc1,,"2.06 µM [falling, partial curve, poor fit]",
CCN(CC(=O)Nc1ccc2c(c1)OCCO2)C(=O)c1cccc(OCC(C)C)c1,-4.82%,,"4.11 µM [falling, single point]"
O=C(CNCc1ccccc1)Nc1cccc(Cl)c1Cl,19.7%,,
COc1ccc2[nH]c3c(c2c1)CCN1C(=O)N([C@@H](C)C(=O)NCCc2ccc(F)cc2)C(=O)[C@]31C,-12.3%,,

# Exported with bars between the fields: two of the compounds above
Compound | cell number change | AC50 [1] | AC50 [2]
COc1ccc(NC2=NCC(=O)N2c2ccccc2)c(OC)c1 | 3.77% |  | 
O=C(COC(=O)c1cn(-c2ccccc2)nc1-c1cccnc1)NC1CC1 |  |  | 1.84 µM [rising, partial curve, poor fit]
